At least one compound was matched to its structure with a doubt left.
Tested on: TyrRS
Type: cell-based, rat
Procedure: Primary cortical neurons were dissected from E18 Sprague Dawley rat pups in Hibernate E (BrainBits®) and dissociated using the Neural Tissue Dissociation kit (Miltenyi Biotec). Minced cortices were incubated in a pre-warmed enzyme mix at 37° C. for 15 min; tissues were then triturated and strained using a 40 μm cell strainer. After washing and centrifugation, neurons were seeded in 50 μg/ml poly-D-Lysine (Sigma-Aldrich) coated tissue culture plates. NBActive-1 medium (BrainBits®) supplemented with 100 U/ml of Penicillin-Streptomycin (Life Technologies™), 2 mM L-Glutamine (Life Technologies™), and 1×N21 supplement (R&D Systems™) was used as culture medium. […]
Cultured neurons (DIV 9-10) were washed once with cold 1×PBS and lysed in cell lysis buffer (20 mM Tris-HCl (pH 7.5), 150 mM NaCl, 1 mM Na2EDTA, 1 mM EGTA, 1% Triton™, 2.5 mM sodium pyrophosphate, 1 mM beta-glycerophosphate, 1 mM Na3VO4, 1 μg/ml leupeptin supplemented with protease inhibitor). […] Lysates were quantified using Bio-Rad™ Protein Assay and equal amounts of protein were loaded onto a 4 to 12% gradient gel (Invitrogen™ NuPAGE™). […] Quantification of western blots was done using ImageJ (Version 1.53c). […]

Question: With `CO[C@H]1C[C@@H]2CC[C@@H](C)[C@@](O)(O2)C(=O)C(=O)N2CCCC[C@H]2C(=O)O[C@H]([C@H](C)C[C@@H]2CC[C@@H](O)[C@H](OC)C2)CC(=O)[C@H](C)/C=C(\C)[C@@H](O)[C@@H](OC)C(=O)[C@H](C)C[C@H](C)/C=C/C=C/C=C/1C` [rapamycin] as the compound, how does the “effect on DA-mediated increase of TyrRS” value read?
Answer: abrogated

— US20250241878A1, “TYROSINE AND RESVERATROL DERIVATIVES AS NOVEL MODULATORS OF CELLULAR SERINE ADP-RIBOSYLATION” (UNIVERSITY OF SOUTH CAROLINA, priority 2022, published 2025)
